Measured values: PubChem BioAssay AID445 (National Center for Advancing Translational Sciences (NCATS), 2006)
The list shows a part of the results. These are further read-outs of the screen, such as a control signal, another cell line or another target. No call is given for them. Compounds called inactive in the main read-out are mostly missing here. The note in brackets gives the kind of curve behind each potency; many fits are weak.

Test: IkB Signaling
Conditions: ABC-DLBCL IkBa-CBG/CBR dual luciferase ratio (green luciferase fused to IkBa over red control in OCI-Ly3 lymphoma cells), 4 h; measured here: control luc red channel unless noted
Method in brief: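 Curves were fitted separately to fusion (green), unfused (red) and ratio luminescence, then classed by r2, magnitude and activity. Cells: OCI-Ly3, 4 h compound plus doxycycline at 37C; 10 uM MG-132 defined full response.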
For `COc1ccc(-c2nc3sc(CCNC(=O)c4ccco4)c(C)n3n2)cc1`, the AC50 was 39.8 µM [falling, single point]. In the case of `Cn1cc(CN(C(=O)Nc2ccccc2)C2CCCCC2)c2ccccc21`, the AC50 is reported as 20 µM [falling, single point]. For `Cn1c(Cn2cnc3ccccc32)nnc1SCC(=O)CC(=O)Nc1ccccc1`, the AC50 was 7.94 µM [falling, partial curve]. In the case of `COc1cc2c(cc1OC)CN(C(=O)Nc1ccccc1)CC2`, the AC50 is reported as 5.01 µM [falling, partial curve]. In the case of `COc1ccccc1NC(=O)c1ccc(COc2ccc(C)c(C)c2)o1`, the AC50 is reported as 31.6 µM [falling, single point]. With `Cc1cccc(N2CCN(S(=O)(=O)c3c(C)nc4scc(C)n4c3=O)CC2)c1C` the AC50 was 31.6 µM [falling, single point]. With `CCn1cc2nc(SCc3cc(C)ccc3C)n(CCc3ccccc3)c(=O)c2n1` the AC50 was 39.8 µM [falling, single point]. In the case of `CCCCn1c(=N)n(CCCOc2ccc(F)cc2)c2ccccc21`, the AC50 is reported as 20 µM [falling, partial curve]. In the case of `COC(=O)c1c(C)oc2ccc(N(C(=O)c3ccncc3)S(=O)(=O)c3ccc(OC)cc3)cc12`, the AC50 is reported as 7.94 µM [falling, full curve]. For `CCc1ccc(-n2c(=O)c3c4c(sc3n(Cc3ccccc3C#N)c2=O)CCC4)cc1`, the AC50 was 7.94 µM [falling, full curve, poor fit]. In the case of `CCc1cc2ccc(C)cc2nc1SCC(=O)N1CCN(C(=O)c2ccco2)CC1`, the AC50 is reported as 15.8 µM [falling, partial curve]. With `O=C(Nc1cccc(NC(=O)C2CC3CCCC(C2)C3=O)n1)C1CC2CCCC(C1)C2=O` (stereo not drawn) the AC50 was 12.6 µM [falling, partial curve]. In the case of `Nc1nc2n(n1)C(c1cccc(Br)c1)CC(c1ccc(F)cc1)N2` (stereo not drawn), the AC50 is reported as 6.31 µM [rising, single point]. For `CCOC(=O)c1cc2oc(C)cc2n1CC(=O)OC1CCCCC1`, the AC50 was 15.8 µM [falling, partial curve]. With `Cc1ccc(CCNC(=O)C2CCCN(c3nnc(C)c4c(C)n(-c5ccccc5)nc34)C2)cc1` (stereo not drawn) the AC50 was 25.1 µM [falling, partial curve]. In the case of `Cc1ccc2c(c1)C1CN(C)CCC1N2C(=O)Nc1ccc(Cl)cc1` (stereo not drawn), the AC50 is reported as 31.6 µM [falling, single point]. With `CC1=C(c2ccc(F)cc2)S(=O)(=O)N=C1N1CCC(C(=O)NCCc2cccc(C)c2)CC1` the AC50 was 31.6 µM [falling, single point]. For `Cc1ccc(CSc2ncc(Cl)c(C(=O)Nc3nnc(C)s3)n2)cc1`, the AC50 was 15.8 µM [falling, partial curve]. For `COc1cccc(-c2nc(CS(=O)(=O)CC(=O)NCc3cccc(Cl)c3)c(C)o2)c1`, the AC50 was 0.00631 µM [falling, full curve, poor fit]. In the case of `COc1ccc(-c2cnnn2-c2ccc(NC(=O)c3ccccc3OC)cc2)cc1`, the AC50 is reported as 3.16 µM [falling, partial curve]. In the case of `COc1ccc(CCNC(=O)CN2C(=O)COc3ccc(S(=O)(=O)N4CCCC4)cc32)c(OC)c1`, the AC50 is reported as 12.6 µM [falling, partial curve]. With `Cc1c(C(=O)NCc2cccc(Cl)c2)sc2nc3n(c(=O)c12)CCCC3` the AC50 was 12.6 µM [falling, partial curve]. In the case of `Cc1c(C(=O)NCc2cccc(Br)c2)oc2ccc3c(c12)C(=O)CC(C)(C)O3`, the AC50 is reported as 1.58 µM [rising, partial curve, poor fit]. With `Cc1csc2nc(=O)c3ccccc3n12` the AC50 was 2 µM [falling, full curve, poor fit]. With `COc1ccc(-c2nc3sc(CCNC(=O)C(=O)Nc4cccc(NC(C)=O)c4)c(C)n3n2)cc1` the AC50 was 3.98 µM [rising, single point]. With `CCNC(=O)C1CCN(S(=O)(=O)c2ccc3c(c2)CCCN3C(C)=O)CC1` the AC50 was 25.1 µM [rising, single point]. In the case of `Cn1c(SCc2nnc(-c3ccccc3Br)o2)nc2sc3c(c2c1=O)CCC3`, the AC50 is reported as 20 µM [falling, partial curve]. With `CCOc1cc(C(=O)Nc2ccc(-c3cn4cccnc4n3)cc2)cc(OCC)c1OCC` the AC50 was 31.6 µM [falling, single point]. With `Cn1c(=O)oc2cc(S(=O)(=O)CCC(=O)N3CCN(c4cccc(Cl)c4)CC3)ccc21` the AC50 was 31.6 µM [falling, single point]. In the case of `CC1CCc2c(sc(N)c2C(N)=O)C1` (stereo not drawn), the AC50 is reported as 15.8 µM [falling, partial curve]. In the case of `O=C(CCN1CCN(c2ccccc2F)CC1)c1ccc(Br)cc1`, the AC50 is reported as 25.1 µM [falling, partial curve]. For `Cc1cccc(NC(=O)C2CCCN2S(=O)(=O)c2ccc3nc(-c4ccccc4)[nH]c3c2)c1` (stereo not drawn), the AC50 was 7.94 µM [falling, partial curve]. For `Cc1ccc2c(c1)c1c(c(=O)n(-c3ccccc3)c(=O)n1CC(=O)NCC1CCCO1)n2C` (stereo not drawn), the AC50 was 5.01 µM [falling, partial curve, poor fit]. With `COc1cc2ncc3c(-c4ccc(C)cc4)nn(-c4ccc(F)cc4F)c3c2cc1OC` the AC50 was 12.6 µM [falling, partial curve]. With `COc1ccc(Cn2ccnc2SCC(=O)Nc2nc3ccccc3s2)cc1` the AC50 was 12.6 µM [falling, partial curve]. For `Nn1c(Nc2ccccc2)nc2sc3c(c2c1=O)CCC3`, the AC50 was 12.6 µM [falling, partial curve]. For `Cc1cc(Nc2ccccc2C)n2nc(Cc3ccc(Cl)cc3)nc2n1`, the AC50 was 39.8 µM [falling, single point]. For `Cc1ccn2c(Nc3ccc4c(c3)OCCO4)c(-c3ccc(C)o3)nc2c1`, the AC50 was 20 µM [falling, partial curve]. In the case of `O=C(Nc1ccc2nc(SCC(=O)N3CCc4ccccc43)sc2c1)c1ccccc1`, the AC50 is reported as 2.51 µM [falling, partial curve]. With `CCCCNC(=O)CSc1nc2nc(C)c(Cc3c(F)cccc3Cl)c(C)n2n1` the AC50 was 39.8 µM [falling, single point]. In the case of `CC(=O)c1ccc(NC(=O)COc2ccccc2-c2nc(-c3ccc(C)cc3)no2)cc1`, the AC50 is reported as 10 µM [falling, partial curve]. For `Cc1ccc(OCC(=O)Nc2ccccc2C(=O)OCc2cc(=O)n3ccsc3n2)cc1`, the AC50 was 1.58 µM [falling, partial curve]. For `O=C(C1CCC(Cn2c(=O)c3sccc3n(Cc3ccccc3)c2=O)CC1)N1CCOCC1` (stereo not drawn), the AC50 was 6.31 µM [rising, partial curve]. In the case of `CCCCCn1c(-c2ccco2)nc2nc3ccccc3nc21`, the AC50 is reported as 12.6 µM [falling, partial curve]. With `Cc1ccc(Cl)cc1N1CCN(C(=O)c2cnn(C)c2C2CCN(C(=O)OC(C)(C)C)CC2)CC1` the AC50 was 15.8 µM [falling, partial curve]. In the case of `Cc1ccc(-c2nnc(Nc3ccccc3O)c3ccccc23)cc1`, the AC50 is reported as 0.631 µM [rising, partial curve]. In the case of `COc1cc(OC)c(NC(=O)N2CCc3c([nH]c4ccccc34)C2c2ccccc2F)cc1Cl` (stereo not drawn), the AC50 is reported as 20 µM [falling, partial curve, poor fit]. For `Cc1cc(Cl)c2c(c1)[C@]1(C(=O)N2)[C@@H]2C(=O)N(Cc3ccccc3)C(=O)[C@@H]2[C@@H]2CCCN21`, the AC50 was 5.01 µM [falling, partial curve]. For `O=C(Nc1ccccc1F)c1ccc(Cn2nc(N3CCN(c4ccccc4)CC3)ccc2=O)o1`, the AC50 was 39.8 µM [falling, partial curve]. With `O=C(CCC(=O)N1CC2CCCN2c2ccccc21)NCc1ccc(F)cc1` (stereo not drawn) the AC50 was 7.94 µM [falling, partial curve]. With `Cc1cc(C)c(NC(=O)CN2C(=O)c3cccnc3Sc3ccccc32)c(C)c1` the AC50 was 12.6 µM [falling, partial curve, poor fit]. In the case of `CCOc1ccccc1CNC(=O)c1ccc(CS(=O)Cc2cccc(Cl)c2)o1` (stereo not drawn), the AC50 is reported as 31.6 µM [falling, single point]. With `COc1cccc(C2CC(=O)Nc3c2ccc(C)c3C)c1OC` (stereo not drawn) the AC50 was 5.01 µM [falling, partial curve]. In the case of `CSc1ccc(C2C(C(=O)Nc3ccccc3)=C(C)Nc3nc4ccccc4n32)cc1` (stereo not drawn), the AC50 is reported as 7.94 µM [falling, full curve]. For `CSc1ccc(CNC(=O)Cn2nc(N3CCN(c4ccccc4)CC3)ccc2=O)cc1`, the AC50 was 31.6 µM [falling, single point]. In the case of `COc1cccc(NC(=O)CSc2nnc(-c3cccc(OC)c3)o2)c1`, the AC50 is reported as 1.58 µM [falling, partial curve]. In the case of `Cc1ccc(NC(=O)CSc2ncc(-c3ccccc3)[nH]2)cc1`, the AC50 is reported as 20 µM [falling, partial curve]. With `O=C(CSc1nc2c([nH]c3ccccc32)c(=O)n1-c1ccc(F)cc1)N1CCc2ccccc21` the AC50 was 1.58 µM [rising, full curve]. With `COc1ccc(OC)c(NC(=O)c2cccc3c2C(=O)N(C2CCCCC2)C3)c1` the AC50 was 15.8 µM [falling, partial curve]. With `O=C(Nc1ccc2c(c1)OCCO2)c1ccccc1F` the AC50 was 15.8 µM [falling, partial curve]. With `O=S(=O)(c1ccc(F)cc1)N(CC(O)Cn1c2ccccc2c2ccccc21)c1ccccc1` (stereo not drawn) the AC50 was 25.1 µM [falling, partial curve]. For `CCOc1ccc(CCNC(=O)c2nnc(Cc3ccc(Cl)cc3Cl)o2)cc1OCC`, the AC50 was 0.00631 µM [falling, full curve, poor fit]. In the case of `CCOc1ccc2nc(N3CCN(C(=O)c4ccco4)CC3)sc2c1`, the AC50 is reported as 25.1 µM [falling, partial curve, poor fit].
